{"source": "patent EP0464022B1", "about": "“INSULINOTROPIC HORMONE” (THE GENERAL HOSPITAL CORPORATION, priority 1989, dated 2000)", "assay": "Peptide level in rat blood by radioimmunoassay", "format": "in vivo", "note": "“And” between values parts separate entries of the source, which are not always exact repeats. Identical values can stand only once.", "data": [{"substance": "GLP-1 (1-37): GLP-1 polypeptide having all amino acids from 1 (N-terminus) through 37 (C-terminus)", "values": [{"measurement": "level in rat portal blood", "result": "approximately 150 pg/ml and ~50 pM"}, {"measurement": "level in peripheral blood", "setting": "rat", "result": "50 pg/ml and 15 pM"}]}]}
